Experimental data: PubChem BioAssay AID743121 (NCATS, 2013)
This is an unselected part of about 26,000 deposited reagents. In the full data, 167 (0.63%) were called active. 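Calls are per gene from RSA p-values that are not deposited; an individual active-marked siRNA can sensitise only weakly.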 Reagents against one gene are numbered here. Further read-outs or replicates are left out here.

Assay: 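Partners whose loss is lethal together with topoisomerase I blockade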 (primary screen)
Cells: MDA-MB-231 cells, a human breast cancer line
Knock-down reagent: single siRNA against human genes, 20 nM siRNA (0.8 pmol per well)
Time to read-out: 120 h (drug added 48 h after transfection, read 72 h later)
Challenge: camptothecin 20 nM (about EC30) for 72 h; vehicle 0.1% DMSO in parallel plates
Read-out: 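Cell viability by ATP luminescence (CellTiter-Glo) as % of non-targeting siRNA wells, and the log2 ratio of viability without drug over viability with camptothecin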
Reading the numbers: log2 vehicle/camptothecin viability: higher = stronger sensitisation to camptothecin
Rule for the call: 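Active genes have an RSA gene-level p-value below 0.001, computed from the ratios of their separate siRNAs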

gene knocked down | siRNA no. | log2 vehicle/camptothecin viability | activity call
PCSK4 | 1 | 0.0231 | inactive
PCSK4 | 2 | -0.156 | inactive
PCSK4 | 3 | -0.347 | inactive
PCSK4 | 4 | -0.102 | inactive
ADGRB2 | 1 | -0.28 | inactive
ADGRB2 | 2 | -0.153 | inactive
ADGRB2 | 3 | -0.0654 | inactive
ADGRB2 | 4 | 0.459 | inactive
PACRG | 1 | -0.507 | inactive
PACRG | 2 | 0.328 | inactive
PACRG | 3 | -0.344 | inactive
ITGA11 | 1 | -0.066 | inactive
ITGA11 | 2 | -0.184 | inactive
ITGA11 | 3 | -0.547 | inactive
ATP7B | 1 | -0.339 | inactive
ATP7B | 2 | 0.268 | inactive
ATP7B | 3 | -0.423 | inactive
ATP7B | 4 | 0.303 | inactive
CSNK1G1 | 1 | -0.207 | inactive
CSNK1G1 | 2 | -0.197 | inactive
CSNK1G1 | 3 | -0.0949 | inactive
CSNK1G1 | 4 | 0.275 | inactive
LOXL3 | 1 | -0.211 | inactive
LOXL3 | 2 | -0.303 | inactive
LOXL3 | 3 | -0.598 | inactive

Sorted by “log2 vehicle/camptothecin viability” (ascending): 6 of the entries above
gene knocked down | siRNA no. | log2 vehicle/camptothecin viability | activity call
PACRG | 1 | -0.507 | inactive
PACRG | 3 | -0.344 | inactive
ITGA11 | 2 | -0.184 | inactive
ITGA11 | 1 | -0.066 | inactive
PACRG | 2 | 0.328 | inactive
ADGRB2 | 4 | 0.459 | inactive

Continued.
gene knocked down | siRNA no. | log2 vehicle/camptothecin viability | activity call
HOMER1 | 1 | -0.386 | inactive
HOMER1 | 2 | -0.439 | inactive
HOMER1 | 3 | 0.162 | inactive
HOMER1 | 4 | -0.295 | inactive
MTMR3 | 1 | 0.257 | inactive
MTMR3 | 2 | -0.203 | inactive
MTMR3 | 3 | 0.101 | inactive
MTMR3 | 4 | 0.0367 | inactive
CA12 | 1 | 0.707 | inactive
CA12 | 2 | 0.0339 | inactive
CA12 | 3 | 1.06 | inactive
CA12 | 4 | 0.279 | inactive
NFKBIZ | 1 | -0.439 | inactive
NFKBIZ | 2 | -0.274 | inactive
NFKBIZ | 3 | -0.288 | inactive
BCAT2 | 1 | 0 | inactive
BCAT2 | 2 | 0.128 | inactive
BCAT2 | 3 | -0.524 | inactive
RPA1 | 1 | -0.0306 | inactive
RPA1 | 2 | -0.278 | inactive
RPA1 | 3 | 0.0315 | inactive
RPA1 | 4 | 0.0785 | inactive
